Measurements as given in the supplement of paper PMC12823440, “Inhibitors supercharge kinase turnover through native proteolytic circuits” (Nature, 2025).
Where a name gives a salt, the structure may show the parent alone. This is one part of the list. The calls rarely recur for the same compound in another form.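 Kinases were expressed as nanoluciferase fusions in K562 cells and luminescence was read every 4 h between 2 and 18 h as percent of control, DMSO set to 100% and a positive control to 0%. A time point counts as decreased when the signal drops significantly (2 sigma). The hit call is the authors' own, does not follow from the count of time points alone, and its rule is not shown.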

target: CDK2 (UniProt P24941); assay: kinase-Nluc reporter destabilization hit call (1 = scored as downregulated) (binary); higher = compound decreases kinase abundance; details: 2.5 µM; K562; 2-18 h

kinase-Nluc reporter destabilization hit call, inactive:
C=CC(=O)Nc1cc(Nc2nccc(-c3cn(C)c4ccccc34)n2)c(OC)cc1N(C)CCN(C)C [Osimertinib mesylate] 0, c1cc(-c2cnn3cc(-c4ccc(OCCN5CCCCC5)cc4)cnc23)ccn1 [Dorsomorphin] 0, CN(C)C/C=C/C(=O)Nc1cc2c(Nc3ccc(F)c(Cl)c3)ncnc2cc1O[C@H]1CCOC1 [Afatinib (dimaleate)] 0, C=CC(=O)Nc1cc(Nc2nccc(-c3cn(C)c4ccccc34)n2)c(OC)cc1N(C)CCN(C)C [Osimertinib] 0, CN(C)C(=O)c1cc2cnc(Nc3ccc(N4CCNCC4)cn3)nc2n1C1CCCC1 [Ribociclib hydrochloride] 0, COc1ccc(S(=O)(=O)Nc2ccccc2CN(C)C/C=C/c2ccc(Cl)cc2)cc1 [KN-92 (hydrochloride)] 0, COc1ccc(S(=O)(=O)Nc2ccccc2CN(C)C/C=C/c2ccc(Cl)cc2)cc1 [KN-92 (phosphate)] 0

same assay, conditions: 10 µM; K562; 2-18 h

kinase-Nluc reporter destabilization hit call, inactive:
COc1ncc(F)cc1CNc1ccc(Cc2c[nH]c3ncc(C)cc23)c(F)n1 0, CCS(=O)(=O)N1CC(CC#N)(n2cc(-c3ncnc4[nH]ccc34)cn2)C1 [Baricitinib (phosphate)] 0, COC(=O)[C@H](CC(C)C)NC(=O)c1ccc(NC[C@@H](N)CS)cc1-c1cccc2ccccc12 [GGTI298 (Trifluoroacetate)] 0, COCCOc1cc(F)c2c(Nc3ccc(NC(=O)Cn4cc(C(C)C)nn4)cc3)ncnc2c1 [AZD3229 Tosylate] 0, CC(C)(C)n1nc(-c2cccc3ccccc23)c2c(N)ncnc21 [1-Naphthyl PP1] 0, N#CCNC(=O)c1ccc(-c2ccnc(Nc3ccc(N4CCOCC4)cc3)n2)cc1 [Momelotinib sulfate] 0, Cn1ncc(Cl)c1-c1cc(C(=O)N[C@H](CN)Cc2cccc(F)c2)sc1Cl [Afuresertib] 0, CNC(=O)c1ccc(Nc2ncc(C(F)(F)F)c(NCc3nccnc3N(C)S(C)(=O)=O)n2)cc1 [Defactinib] 0, O=C(O)c1ccc2c(c1)nc(Nc1cccc(Cl)c1)c1ccncc12 [Silmitasertib] 0, O=C(Nc1cnn2ccc(N3CCC[C@@H]3c3cc(F)ccc3F)nc12)N1CC[C@H](O)C1 [Larotrectinib] 0, COc1cc2nccc(Oc3ccc(NC(=O)C4(C(=O)Nc5ccc(F)cc5)CC4)cc3)c2cc1OC [Cabozantinib (S-malate)] 0, CN(C)C(=N)NC(=N)N [Metformin (hydrochloride)] 0, COc1ccnc(C[S+]([O-])c2nc3cc(-n4cccc4)ccc3[nH]2)c1C (stereo not given) [Ilaprazole (sodium)] 0, C#Cc1cccc(Nc2ncnc3cc4c(cc23)OCCOCCOCCO4)c1 [Icotinib (Hydrochloride)] 0, CC(C)NC[C@@H](C(=O)N1CCN(c2ncnc3c2[C@H](C)C[C@H]3O)CC1)c1ccc(Cl)cc1 [Ipatasertib] 0, CC(=O)c1c(C)c2cnc(Nc3ccc(N4CCNCC4)cn3)nc2n(C2CCCC2)c1=O [Palbociclib (monohydrochloride)] 0, C#Cc1cccc(Nc2ncnc3cc(OCCOC)c(OCCOC)cc23)c1 [Erlotinib] 0, OCCn1cc(-c2cnc3nnn(Cc4ccc5ncccc5c4)c3n2)cn1 0, CCN(CC)CC(=O)Nc1c(C)cccc1C [Lidocaine] 0, C#Cc1cccc(Nc2ncnc3cc(OCCOC)c(OCCOC)cc23)c1 [Erlotinib (Hydrochloride)] 0, O=C(c1ccc(F)c(F)c1Nc1ccc(I)cc1F)N1CC(O)([C@@H]2CCCCN2)C1 [Cobimetinib] 0, CC(C)(C)n1nc(-c2cccc3ccccc23)c2c(N)ncnc21 [1-Naphthyl PP1 (hydrochloride)] 0, CC(=O)c1c(C)c2cnc(Nc3ccc(N4CCNCC4)cn3)nc2n(C2CCCC2)c1=O [Palbociclib (isethionate)] 0
